Data published in patent US11964946B1, “4,5-bis(4-methoxyphenyl)-1-hexyl-2-(4-nitrophenyl)-1H-imidazole as an antimicrobial compound” (KING FAISAL UNIVERSITY, priority 2023, dated 2024).
At least one structure is not confirmed: it was looked up by name or label, or the drawing left a doubt.

Experiments:
Assay in all cases: Antimicrobial screening, agar dilution method
Type in all cases: cell-based
Escherichia coli = details: E. Coli
Experimental: (§1) The antimicrobial properties of the 4,5-bis(4-methoxyphenyl)-1-hexyl-2-(4-nitrophenyl)-1H-imidazole was studied by the method of agar dilution. Test solutions of each compound was prepared in concentration of 1% using dimethylformamide as a solvent then they were diluted in physiological solution to obtain the final experimental dilutions 1:100, 1:200, 1:400, 1:800. The effect of these substances were compared with furacillin in a controlled study. The testing microbes used were gram positive bacteria Staphylococcus aureus, gram negative bacteria Pseudomonas aeruginosa and Escherichia coli and Candida albicans fungi were taken. The experiments used for this survey were meat-pentonlu agar (EPA) for cultivation of bacteria and Saburo environment for fungi. Each experiment used 1 ml of test solution on each plate 500 min. Add 2 drops of emulsified with microbes feel. All experimental samples were taken from the agar after 10, 20, 40, 60 minutes in the environment on the basis of Patrk planted. Bacteria were cultivated at a temperature of 37° C. for 1 day and the mushroom was kept in a thermostat for […] at a temperature of 28° C. Then results were checked.

Pseudomonas aeruginosa = details: Ps. aeruginosa
Experimental: as §1

Candida albicans = system: Candida albicans
Experimental: as §1

Staphylococcus aureus = details: St. Aereus
Experimental: as §1

[1] = dilution rate 1:100, exposure time 10 min
[2] = dilution rate 1:100, exposure time 20 min
[3] = dilution rate 1:100, exposure time 40 min
[4] = dilution rate 1:100, exposure time 60 min
[5] = dilution rate 1:200, exposure time 10 min
[6] = dilution rate 1:200, exposure time 20 min
[7] = dilution rate 1:200, exposure time 40 min
[8] = dilution rate 1:200, exposure time 60 min
[9] = dilution rate 1:400, exposure time 10 min
[10] = dilution rate 1:400, exposure time 20 min
[11] = dilution rate 1:400, exposure time 40 min
[12] = dilution rate 1:400, exposure time 60 min
[13] = dilution rate 1:800, exposure time 10 min
[14] = dilution rate 1:800, exposure time 20 min
[15] = dilution rate 1:800, exposure time 40 min
[16] = dilution rate 1:800, exposure time 60 min

`NC(=O)N/N=C/c1ccc([N+](=O)[O-])o1` [Furacilin] was tested, and the antimicrobial activity (Escherichia coli; [1]) was “−”, the antimicrobial activity (Escherichia coli; [2]) was “−” and the antimicrobial activity (Escherichia coli; [3]) was “−”. The antimicrobial activity (Escherichia coli; [4]) was “−”, the antimicrobial activity (Escherichia coli; [5]) was “+” and the antimicrobial activity (Escherichia coli; [6]) was “+”. For the same compound, the antimicrobial activity (Escherichia coli; [7]) was “+”, the antimicrobial activity (Escherichia coli; [8]) was “+” and the antimicrobial activity (Escherichia coli; [9]) was “+”. The antimicrobial activity (Escherichia coli; [10]) was “+”, the antimicrobial activity (Escherichia coli; [11]) was “+” and the antimicrobial activity (Escherichia coli; [12]) was “+”. For the same compound, the antimicrobial activity (Escherichia coli; [13]) was “+”, the antimicrobial activity (Escherichia coli; [14]) was “+” and the antimicrobial activity (Escherichia coli; [15]) was “+”. For the same compound, the antimicrobial activity (Escherichia coli; [16]) was “+”, the antimicrobial activity (Pseudomonas aeruginosa; [1]) was “+” and the antimicrobial activity (Pseudomonas aeruginosa; [2]) was “+”. For the same compound, the antimicrobial activity (Pseudomonas aeruginosa; [3]) was “+”, the antimicrobial activity (Pseudomonas aeruginosa; [4]) was “+” and the antimicrobial activity (Pseudomonas aeruginosa; [5]) was “+”. The antimicrobial activity (Pseudomonas aeruginosa; [6]) was “+”, the antimicrobial activity (Pseudomonas aeruginosa; [7]) was “+” and the antimicrobial activity (Pseudomonas aeruginosa; [8]) was “+”. The antimicrobial activity (Pseudomonas aeruginosa; [9]) was “+”, the antimicrobial activity (Pseudomonas aeruginosa; [10]) was “+” and the antimicrobial activity (Pseudomonas aeruginosa; [11]) was “+”. The antimicrobial activity (Pseudomonas aeruginosa; [12]) was “+”, the antimicrobial activity (Pseudomonas aeruginosa; [13]) was “+” and the antimicrobial activity (Pseudomonas aeruginosa; [14]) was “+”. For the same compound, the antimicrobial activity (Pseudomonas aeruginosa; [15]) was “+”, the antimicrobial activity (Pseudomonas aeruginosa; [16]) was “+” and the antimicrobial activity (Candida albicans; [1]) was “−”. The antimicrobial activity (Candida albicans; [2]) was “−”, the antimicrobial activity (Candida albicans; [3]) was “+” and the antimicrobial activity (Candida albicans; [4]) was “+”. The antimicrobial activity (Candida albicans; [5]) was “+”, the antimicrobial activity (Candida albicans; [6]) was “+” and the antimicrobial activity (Candida albicans; [7]) was “+”. For the same compound, the antimicrobial activity (Candida albicans; [8]) was “+”, the antimicrobial activity (Candida albicans; [9]) was “+” and the antimicrobial activity (Candida albicans; [10]) was “+”. For the same compound, the antimicrobial activity (Candida albicans; [11]) was “+”, the antimicrobial activity (Candida albicans; [12]) was “+” and the antimicrobial activity (Candida albicans; [13]) was “+”. The antimicrobial activity (Candida albicans; [14]) was “+”, the antimicrobial activity (Candida albicans; [15]) was “+” and the antimicrobial activity (Candida albicans; [16]) was “+”. The antimicrobial activity (Staphylococcus aureus; [1]) was “−”, the antimicrobial activity (Staphylococcus aureus; [2]) was “−” and the antimicrobial activity (Staphylococcus aureus; [3]) was “−”. For the same compound, the antimicrobial activity (Staphylococcus aureus; [4]) was “−”, the antimicrobial activity (Staphylococcus aureus; [5]) was “+” and the antimicrobial activity (Staphylococcus aureus; [6]) was “+”. The antimicrobial activity (Staphylococcus aureus; [7]) was “+”, the antimicrobial activity (Staphylococcus aureus; [8]) was “+” and the antimicrobial activity (Staphylococcus aureus; [9]) was “+”. The antimicrobial activity (Staphylococcus aureus; [10]) was “+”, the antimicrobial activity (Staphylococcus aureus; [11]) was “+” and the antimicrobial activity (Staphylococcus aureus; [12]) was “+”. For the same compound, the antimicrobial activity (Staphylococcus aureus; [13]) was “+”, the antimicrobial activity (Staphylococcus aureus; [14]) was “+” and the antimicrobial activity (Staphylococcus aureus; [15]) was “+”. The antimicrobial activity (Staphylococcus aureus; [16]) was “+”.
